# Assay results taken from patent US11505815B2, “Compositions and methods related to non-templated enzymatic nucleic acid synthesis” (Nuclera Nucleics Ltd., priority 2017, dated 2022).
# Experiment: Unmasking of the amine masked group (TCEP, methylamine, potassium carbonate), analysed by LC-MS
# Assay type: physicochemical
smiles,measurement,setting,value
"CC(=O)Nc1ncnc2c1ncn2[C@@H]1O[C@H](CO)[C@@H](O)[C@H]1O [N6-acetyl A, N6-acetyl adenosine]",Conversion to the unmasked nucleoside by methylamine,aqueous 40% methylamine,loss of the N6-acetyl A peak at 1.8 min and appearance of the A peak
same,Conversion to the unmasked nucleoside by potassium carbonate,"potassium carbonate (50 mM aqueous, room temperature where stated)",afforded the deacetylated compound
